Test results taken from patent US20180333399A1, “METHOD OF IMPROVING LIVER FUNCTION” (NAIA METABOLIC, INC., priority 2012, published 2018).

Assay: Body weight of db/db mice, 9 days oral gavage
Assay type: in vivo

In the case of `CC(=O)/N=c1/sc(S(N)(=O)=O)nn1C` [methazolamide], the “Change in Body Weight, Day 9-Day 0” value (50 mg/kg/day oral gavage for 9 days, p < 0.05 vs vehicle) is reported as -2.6 ± 1.4 g, the “Body Weight, Day 9” value (Day 9, 50 mg/kg/day oral gavage) is reported as 39.0 ± 4.4 g and the “change in body weight over the 9 day dosing period (in words)” value (db/db mice, 50 mg/kg/day, vehicle-treated animals gained weight) is reported as “lost weight”.
